Structures can show the parent of a compound that is named as a salt. The list shows a part of the results. Single values are uncertain here, since repeats match poorly.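 The human kidney-derived cells carry a stably integrated construct of eight TEAD-binding elements driving luciferase, read by luminescence in a drug-repurposing library screen. A compound counts as a hit when its signal is more than five robust Z scores above the plate mean.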
System: HEK293A TEAD-LUC reporter
Assay: TEAD-luciferase reporter activity (YAP activation), robust Z score vs plate; higher = stronger YAP/TEAD activation
Details: 24 h

Structure (SMILES)	TEAD-luciferase reporter activity (compound concentration: 200 nM)	TEAD-luciferase reporter activity (compound concentration: 2 uM)	TEAD-luciferase reporter activity (compound concentration: 10 uM)
COC(=O)C1=C(C)NC(C)=C(C(=O)OC(C)C)C1c1ccccc1[N+](=O)[O-] (stereo not drawn)	inactive: -1.16	inactive: 2.13	inactive: -0.63
CNC(=O)c1ccc(N2C(=S)N(c3ccc(C#N)c(C(F)(F)F)c3)C(=O)C2(C)C)cc1F [enzalutamide]	inactive: -2.65	inactive: -2.04	inactive: 0.433
CCCCN(CCCC)CCNc1nc(-c2ccccc2)no1 [Butalamine]	inactive: 1.08	inactive: 0.00691	inactive: -0.0318
Clc1ccc(C2CNC(C3CC3)C2)cc1 (stereo not drawn)	inactive: -0.923	inactive: 2.49	inactive: -0.796
CCCCCNCC(N)=O [Milacemide]	inactive: -1.8	inactive: -0.426	inactive: -1.15
Cc1ccc(COC(=O)N2CCC(CNc3ncccn3)C(F)C2)cc1 (stereo not drawn)	inactive: 2.18	inactive: -0.461	inactive: 0.884
C[C@H](NS(C)(=O)=O)c1ccc(S(=O)(=O)c2ccc(Cl)cc2S(=O)(=O)c2ccccc2F)cc1	inactive: -0.496	inactive: 0.689	inactive: -1.02
C#C[C@]1(CO)O[C@@H](n2cnc3c(N)nc(F)nc32)C[C@@H]1O	inactive: 1.45	inactive: -0.421	inactive: 0.928
COC(=O)N1CCN(Cc2cccc(NC(=O)Nc3ccc(C)nc3)c2F)CC1 [omecamtiv mecarbil]	inactive: -0.5	inactive: 0.887	inactive: -0.506
COC1=C(C)C(=O)C(/C=C(\CCCCCc2cccnc2)C(=O)O)=C(C)C1=O	inactive: -1.08	inactive: -0.782	inactive: -0.347
O=C(CCCN1CCC(O)(c2ccc(Cl)cc2)CC1)c1ccc(F)cc1 [Haloperidol]	inactive: 2.25	inactive: 1.09	inactive: -1.52
CC(Cc1ccccc1)(NC(=O)CN)c1ccccc1 (stereo not drawn) [Remacemide hydrochloride]		inactive: -2.02	
Cc1nc2cc(NC(=O)c3ccc(-c4ccc(F)cc4)nc3C)ccc2s1	inactive: 0.0808	inactive: 0.269	active: 8.75
O=C1CC(=O)[O][Pt]2([NH2+]C[C@H]3OC4(CCCC4)O[C@@H]3C[NH2+]2)[O]1	inactive: -1.6	inactive: 0.309	inactive: -1.82
CNC(=O)c1cc(OC)c(O[C@@H](C)C(=O)N2CCN(C(=O)c3ccccc3)C[C@H]2C)cn1	inactive: 1.64	inactive: -0.989	inactive: 2.26
CN1C(CCl)Nc2cc(Cl)c(S(N)(=O)=O)cc2S1(=O)=O (stereo not drawn) [Methyclothiazide]	inactive: -0.82	inactive: -1.42	inactive: 0.445

Structure (SMILES)	TEAD-luciferase reporter activity (compound concentration: 200 nM)	TEAD-luciferase reporter activity (compound concentration: 2 uM)	TEAD-luciferase reporter activity (compound concentration: 10 uM)
O=C(OC[C@H]1O[C@@H](OC(=O)c2cc(O)c(O)c(OC(=O)c3cc(O)c(O)c(O)c3)c2)[C@H](OC(=O)c2cc(O)c(O)c(OC(=O)c3cc(O)c(O)c(O)c3)c2)[C@@H](OC(=O)c2cc(O)c(O)c(OC(=O)c3cc(O)c(O)c(O)c3)c2)[C@@H]1OC(=O)c1cc(O)c(O)c(OC(=O)c2cc(O)c(O)c(O)c2)c1)c1cc(O)c(O)c(OC(=O)c2cc(O)c(O)c(O)c2)c1	inactive: -0.0382	inactive: -1.76	inactive: -0.763
O=C(NCc1c(F)cc(F)cc1F)c1cn2c(c(O)c1=O)C(=O)N1[C@H]3CC[C@H](C3)O[C@@H]1C2 [Bictegravir]	inactive: -1.27	inactive: -0.34	inactive: -0.513
N=C(N)NCCC[C@H](NC(=O)OCCCCCn1cnc2c(O)ncnc21)C(=O)O	inactive: -1.48	inactive: -2.14	inactive: 0.673
Cn1cc(C(=O)NCc2ccc(Cl)cc2)c(=O)c2cc(CN3CCOCC3)sc21	inactive: -1.17	inactive: 2.31	inactive: 0.12
Cc1cn(C2CC(O)C(CO)O2)c(=O)[nH]c1=O (stereo not drawn) [Thymidine]	inactive: -0.972	inactive: -0.309	inactive: 0.844
Cc1cccc(/C=N/N2CCN(C(c3ccccc3)c3ccccc3)CC2)n1 [ropizine]	inactive: -1.27	inactive: -0.594	inactive: 0.919
CCc1noc(CNc2cc(-c3ccccc3)nc3c(C)c(C)nn23)n1	inactive: -1.05	inactive: -1.03	inactive: 0.405
CCOC(=O)c1ncc2[nH]c3cccc(OC(C)C)c3c2c1C	inactive: 1.29	inactive: -0.728	inactive: 0.277
Cc1oc(-c2ccccc2)nc1CCOc1ccc(CC2C(=O)NOC2=O)cc1 (stereo not drawn)	inactive: -0.851	inactive: -0.409	inactive: -1.39
O=C(CS)Nc1ccccc1	inactive: 0.618	inactive: 1.89	inactive: -0.229
CS(=O)(=O)CCCNCC(O)COc1ccc(C#N)cc1 (stereo not drawn)	inactive: 1.99	inactive: -0.621	inactive: 4.35
NC(=O)Nc1ccc(S(=O)(=O)c2ccc(N)cc2)cc1	inactive: -1.19	inactive: 0.337	inactive: 0.589
[K][Br]	inactive: -0.612	inactive: -1.61	inactive: -1.21
Oc1ccc(O)cc1	inactive: -0.738		inactive: 2.7
Oc1ccc(O)cc1 [hydroqui   , 1.5%]		inactive: 0.393	

6 entries from above in another layout.
Structure (SMILES) | TEAD-luciferase reporter activity (compound concentration: 200 nM) | TEAD-luciferase reporter activity (compound concentration: 2 uM) | TEAD-luciferase reporter activity (compound concentration: 10 uM)
N=C(N)NCCC[C@H](NC(=O)OCCCCCn1cnc2c(O)ncnc21)C(=O)O | inactive: -1.48 | inactive: -2.14 | inactive: 0.673
Cn1cc(C(=O)NCc2ccc(Cl)cc2)c(=O)c2cc(CN3CCOCC3)sc21 | inactive: -1.17 | inactive: 2.31 | inactive: 0.12
Cc1cn(C2CC(O)C(CO)O2)c(=O)[nH]c1=O (stereo not drawn) [Thymidine] | inactive: -0.972 | inactive: -0.309 | inactive: 0.844
Cc1cccc(/C=N/N2CCN(C(c3ccccc3)c3ccccc3)CC2)n1 [ropizine] | inactive: -1.27 | inactive: -0.594 | inactive: 0.919
CCc1noc(CNc2cc(-c3ccccc3)nc3c(C)c(C)nn23)n1 | inactive: -1.05 | inactive: -1.03 | inactive: 0.405
CCOC(=O)c1ncc2[nH]c3cccc(OC(C)C)c3c2c1C | inactive: 1.29 | inactive: -0.728 | inactive: 0.277

Reference: the supplement of paper PMC10735217
